# Experimental data reported in the supplement of paper PMC10849652.
# By UniProt entry, the sequences of proteins in these tests, tags left out. Where a name states a change or a piece, a line headed by the entry shows the natural chain unless it says otherwise.
# UniProt O60869: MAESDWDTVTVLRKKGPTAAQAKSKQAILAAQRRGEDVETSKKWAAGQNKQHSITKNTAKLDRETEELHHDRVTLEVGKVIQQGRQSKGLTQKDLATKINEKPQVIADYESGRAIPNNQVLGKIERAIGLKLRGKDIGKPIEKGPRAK
# UniProt Q9BTV6: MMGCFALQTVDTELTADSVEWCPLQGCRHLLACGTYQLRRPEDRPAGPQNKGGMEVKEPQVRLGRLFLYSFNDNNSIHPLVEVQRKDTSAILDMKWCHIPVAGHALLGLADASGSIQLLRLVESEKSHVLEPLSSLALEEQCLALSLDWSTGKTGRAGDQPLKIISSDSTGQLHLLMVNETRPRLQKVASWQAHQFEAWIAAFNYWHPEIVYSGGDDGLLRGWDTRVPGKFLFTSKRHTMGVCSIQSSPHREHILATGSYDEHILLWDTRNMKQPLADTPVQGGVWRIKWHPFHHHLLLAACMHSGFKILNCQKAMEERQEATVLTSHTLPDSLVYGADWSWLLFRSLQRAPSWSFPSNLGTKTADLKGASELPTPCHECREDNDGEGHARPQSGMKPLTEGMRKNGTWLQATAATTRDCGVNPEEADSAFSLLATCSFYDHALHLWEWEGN
# UniProt P50570: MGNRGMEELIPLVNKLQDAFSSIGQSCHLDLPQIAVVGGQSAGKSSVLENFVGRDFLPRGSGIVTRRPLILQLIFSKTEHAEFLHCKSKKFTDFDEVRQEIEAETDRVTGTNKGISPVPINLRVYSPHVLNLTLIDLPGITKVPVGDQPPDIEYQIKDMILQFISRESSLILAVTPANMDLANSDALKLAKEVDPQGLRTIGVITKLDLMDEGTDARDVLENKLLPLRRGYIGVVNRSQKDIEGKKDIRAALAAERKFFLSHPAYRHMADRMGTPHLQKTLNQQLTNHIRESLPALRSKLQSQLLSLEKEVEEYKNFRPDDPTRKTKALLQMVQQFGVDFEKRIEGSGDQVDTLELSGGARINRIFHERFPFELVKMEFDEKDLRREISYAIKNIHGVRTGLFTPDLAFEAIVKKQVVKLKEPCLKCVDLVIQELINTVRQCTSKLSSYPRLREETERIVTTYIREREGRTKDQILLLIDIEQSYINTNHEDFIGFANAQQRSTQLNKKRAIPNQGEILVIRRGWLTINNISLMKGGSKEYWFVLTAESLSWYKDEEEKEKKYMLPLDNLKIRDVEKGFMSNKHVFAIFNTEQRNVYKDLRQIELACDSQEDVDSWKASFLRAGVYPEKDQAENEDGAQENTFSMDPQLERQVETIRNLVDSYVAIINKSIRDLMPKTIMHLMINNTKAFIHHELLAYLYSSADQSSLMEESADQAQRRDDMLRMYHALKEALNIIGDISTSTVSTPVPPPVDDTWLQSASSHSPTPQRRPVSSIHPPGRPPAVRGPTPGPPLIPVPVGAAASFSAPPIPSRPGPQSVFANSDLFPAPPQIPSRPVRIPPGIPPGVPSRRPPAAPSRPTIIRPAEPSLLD
# UniProt Q9H3H5: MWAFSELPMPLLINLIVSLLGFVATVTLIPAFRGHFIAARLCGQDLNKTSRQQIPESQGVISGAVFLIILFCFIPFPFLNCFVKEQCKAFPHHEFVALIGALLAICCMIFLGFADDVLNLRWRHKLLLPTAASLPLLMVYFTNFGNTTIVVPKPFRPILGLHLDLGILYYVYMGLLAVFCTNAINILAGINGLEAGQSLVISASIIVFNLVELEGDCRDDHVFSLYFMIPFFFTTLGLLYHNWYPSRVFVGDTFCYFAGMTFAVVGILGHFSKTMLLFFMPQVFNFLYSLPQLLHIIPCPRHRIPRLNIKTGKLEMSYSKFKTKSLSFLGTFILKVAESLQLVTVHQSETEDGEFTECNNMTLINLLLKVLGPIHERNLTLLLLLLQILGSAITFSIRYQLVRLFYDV
# UniProt Q99543: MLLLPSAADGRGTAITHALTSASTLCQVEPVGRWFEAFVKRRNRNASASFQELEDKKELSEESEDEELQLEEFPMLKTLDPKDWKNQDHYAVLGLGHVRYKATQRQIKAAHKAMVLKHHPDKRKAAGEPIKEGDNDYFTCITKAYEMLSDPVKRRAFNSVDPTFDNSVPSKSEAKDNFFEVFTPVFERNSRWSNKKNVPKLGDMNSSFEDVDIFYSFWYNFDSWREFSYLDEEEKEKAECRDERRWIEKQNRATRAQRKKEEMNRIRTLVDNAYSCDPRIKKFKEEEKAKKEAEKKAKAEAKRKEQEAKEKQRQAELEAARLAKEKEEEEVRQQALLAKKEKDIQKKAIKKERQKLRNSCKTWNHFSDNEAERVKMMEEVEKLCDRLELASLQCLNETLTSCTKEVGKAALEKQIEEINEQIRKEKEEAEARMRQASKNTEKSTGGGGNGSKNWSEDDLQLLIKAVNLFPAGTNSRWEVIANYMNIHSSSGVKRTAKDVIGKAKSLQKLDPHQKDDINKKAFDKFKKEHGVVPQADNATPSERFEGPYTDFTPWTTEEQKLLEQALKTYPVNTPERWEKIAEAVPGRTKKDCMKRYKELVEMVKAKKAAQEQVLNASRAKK
# UniProt Q16254: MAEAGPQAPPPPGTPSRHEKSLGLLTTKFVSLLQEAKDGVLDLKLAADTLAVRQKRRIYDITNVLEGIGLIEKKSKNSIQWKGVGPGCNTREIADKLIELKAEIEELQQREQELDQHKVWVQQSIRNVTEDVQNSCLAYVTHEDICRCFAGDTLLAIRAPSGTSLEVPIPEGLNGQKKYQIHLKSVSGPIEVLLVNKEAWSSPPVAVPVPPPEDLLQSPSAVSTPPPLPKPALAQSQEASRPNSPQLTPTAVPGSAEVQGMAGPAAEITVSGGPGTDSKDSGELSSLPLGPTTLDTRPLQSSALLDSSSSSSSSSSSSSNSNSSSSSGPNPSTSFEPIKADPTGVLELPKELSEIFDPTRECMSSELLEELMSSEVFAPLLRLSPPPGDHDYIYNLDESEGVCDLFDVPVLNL
# UniProt Q9NXW2: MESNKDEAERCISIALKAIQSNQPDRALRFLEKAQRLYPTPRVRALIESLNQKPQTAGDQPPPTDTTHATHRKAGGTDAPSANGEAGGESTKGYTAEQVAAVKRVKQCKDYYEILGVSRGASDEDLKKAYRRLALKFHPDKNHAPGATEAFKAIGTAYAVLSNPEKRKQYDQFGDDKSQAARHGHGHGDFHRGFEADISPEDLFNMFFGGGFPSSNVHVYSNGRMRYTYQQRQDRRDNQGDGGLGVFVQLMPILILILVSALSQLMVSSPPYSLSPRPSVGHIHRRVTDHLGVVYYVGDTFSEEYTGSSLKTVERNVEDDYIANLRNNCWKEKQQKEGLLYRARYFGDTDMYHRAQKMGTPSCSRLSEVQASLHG
# UniProt Q13409, whole entry, looked up: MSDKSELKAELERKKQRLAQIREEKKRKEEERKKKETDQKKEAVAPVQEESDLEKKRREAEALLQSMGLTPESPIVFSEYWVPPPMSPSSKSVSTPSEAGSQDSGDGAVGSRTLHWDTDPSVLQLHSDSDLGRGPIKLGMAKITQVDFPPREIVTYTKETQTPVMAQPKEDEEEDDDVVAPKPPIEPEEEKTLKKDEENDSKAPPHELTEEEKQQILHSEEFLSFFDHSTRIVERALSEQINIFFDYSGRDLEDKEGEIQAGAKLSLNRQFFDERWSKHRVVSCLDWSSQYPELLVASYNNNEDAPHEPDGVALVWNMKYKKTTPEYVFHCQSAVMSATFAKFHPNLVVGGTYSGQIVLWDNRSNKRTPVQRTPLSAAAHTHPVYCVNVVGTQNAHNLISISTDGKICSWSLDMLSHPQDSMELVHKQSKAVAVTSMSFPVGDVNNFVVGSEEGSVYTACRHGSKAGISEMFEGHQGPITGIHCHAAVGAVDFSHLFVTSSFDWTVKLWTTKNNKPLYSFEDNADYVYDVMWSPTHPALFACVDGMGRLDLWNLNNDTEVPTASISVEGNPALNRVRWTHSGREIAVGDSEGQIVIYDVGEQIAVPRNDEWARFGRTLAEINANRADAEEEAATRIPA
# UniProt P33316: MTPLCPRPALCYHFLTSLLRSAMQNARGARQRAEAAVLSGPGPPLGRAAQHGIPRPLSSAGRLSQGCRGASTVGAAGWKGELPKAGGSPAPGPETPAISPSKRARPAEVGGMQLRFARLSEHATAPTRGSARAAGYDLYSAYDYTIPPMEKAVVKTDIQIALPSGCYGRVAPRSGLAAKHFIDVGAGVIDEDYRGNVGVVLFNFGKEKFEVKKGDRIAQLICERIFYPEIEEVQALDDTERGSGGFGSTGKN
# UniProt O75521: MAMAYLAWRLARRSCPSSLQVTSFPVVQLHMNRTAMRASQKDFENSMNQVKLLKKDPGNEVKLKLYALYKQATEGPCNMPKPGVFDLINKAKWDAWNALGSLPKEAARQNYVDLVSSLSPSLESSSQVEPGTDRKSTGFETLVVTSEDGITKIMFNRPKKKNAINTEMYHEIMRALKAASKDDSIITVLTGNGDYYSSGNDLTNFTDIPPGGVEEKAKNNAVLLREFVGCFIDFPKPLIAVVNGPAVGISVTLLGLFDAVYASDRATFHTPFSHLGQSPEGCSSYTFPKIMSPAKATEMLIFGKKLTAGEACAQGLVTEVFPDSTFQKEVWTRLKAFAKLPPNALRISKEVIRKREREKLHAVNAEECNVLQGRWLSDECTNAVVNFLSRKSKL
# UniProt Q9NP97, whole entry, looked up: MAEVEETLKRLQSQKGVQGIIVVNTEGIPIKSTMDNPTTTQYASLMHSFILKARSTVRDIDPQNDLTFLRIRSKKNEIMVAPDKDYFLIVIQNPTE
# UniProt Q9BV94: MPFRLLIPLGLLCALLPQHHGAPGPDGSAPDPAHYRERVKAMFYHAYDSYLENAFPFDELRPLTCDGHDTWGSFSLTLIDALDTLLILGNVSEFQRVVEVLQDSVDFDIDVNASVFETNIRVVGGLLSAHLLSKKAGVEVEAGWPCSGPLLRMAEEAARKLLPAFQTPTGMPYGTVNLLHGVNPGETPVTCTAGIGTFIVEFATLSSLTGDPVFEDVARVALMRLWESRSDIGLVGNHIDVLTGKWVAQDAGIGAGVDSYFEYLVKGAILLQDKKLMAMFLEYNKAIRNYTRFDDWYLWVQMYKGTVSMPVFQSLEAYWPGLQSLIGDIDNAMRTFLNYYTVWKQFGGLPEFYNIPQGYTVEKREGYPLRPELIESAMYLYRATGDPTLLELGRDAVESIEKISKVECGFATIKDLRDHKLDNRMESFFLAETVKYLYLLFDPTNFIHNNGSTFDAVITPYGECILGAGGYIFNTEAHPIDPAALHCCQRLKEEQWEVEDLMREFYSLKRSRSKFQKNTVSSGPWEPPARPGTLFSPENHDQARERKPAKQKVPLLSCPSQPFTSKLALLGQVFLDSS
# UniProt Q9BZQ6: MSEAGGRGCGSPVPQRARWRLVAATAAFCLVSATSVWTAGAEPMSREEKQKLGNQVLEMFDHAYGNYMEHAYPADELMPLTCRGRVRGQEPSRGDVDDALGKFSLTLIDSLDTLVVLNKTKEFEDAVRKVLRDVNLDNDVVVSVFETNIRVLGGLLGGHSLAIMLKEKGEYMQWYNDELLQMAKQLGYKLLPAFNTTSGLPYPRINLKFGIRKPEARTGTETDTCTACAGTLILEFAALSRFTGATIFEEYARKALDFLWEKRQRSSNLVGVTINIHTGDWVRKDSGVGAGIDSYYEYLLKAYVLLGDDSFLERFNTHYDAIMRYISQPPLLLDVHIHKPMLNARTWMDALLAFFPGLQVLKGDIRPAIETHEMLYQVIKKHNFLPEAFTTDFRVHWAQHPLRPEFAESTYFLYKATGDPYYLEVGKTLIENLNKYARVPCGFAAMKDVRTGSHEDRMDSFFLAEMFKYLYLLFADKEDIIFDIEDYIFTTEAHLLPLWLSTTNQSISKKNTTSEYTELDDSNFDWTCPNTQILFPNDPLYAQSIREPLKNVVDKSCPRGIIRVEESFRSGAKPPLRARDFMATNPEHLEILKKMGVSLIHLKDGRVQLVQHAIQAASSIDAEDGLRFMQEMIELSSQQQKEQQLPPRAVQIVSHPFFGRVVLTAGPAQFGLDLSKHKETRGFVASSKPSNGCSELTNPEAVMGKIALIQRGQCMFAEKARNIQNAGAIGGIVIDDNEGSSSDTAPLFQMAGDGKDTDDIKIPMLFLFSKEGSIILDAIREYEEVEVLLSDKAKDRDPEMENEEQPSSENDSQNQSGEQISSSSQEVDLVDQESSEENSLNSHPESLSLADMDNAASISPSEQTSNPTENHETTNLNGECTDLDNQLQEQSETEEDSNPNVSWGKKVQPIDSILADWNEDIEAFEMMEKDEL
# UniProt Q9H2P9: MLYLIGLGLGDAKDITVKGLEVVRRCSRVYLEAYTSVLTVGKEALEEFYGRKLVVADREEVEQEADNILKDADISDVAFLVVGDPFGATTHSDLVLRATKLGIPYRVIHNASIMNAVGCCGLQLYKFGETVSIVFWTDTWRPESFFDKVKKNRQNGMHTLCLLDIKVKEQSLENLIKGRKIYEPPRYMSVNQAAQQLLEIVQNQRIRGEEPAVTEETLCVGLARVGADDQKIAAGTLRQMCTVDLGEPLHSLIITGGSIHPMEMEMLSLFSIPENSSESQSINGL
# Some of the results follow.
# What was measured:
# Test in all cases: log2 fold change, soluble protein after heating vs DMSO (PISA); higher = thermal stabilisation; K562 cells, 10 uM, 30 min; active = over 0.2 and 3.5 SD of the protein, either way, in both replicates (recomputed)
# erlotinib = compound: C#Cc1cccc(Nc2ncnc3cc(OCCOC)c(OCCOC)cc23)c1 [erlotinib]
# Method in brief: (§1)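 Soluble protein was defined as the supernatant after 21,000xg for 90 min. It came from K562 cells at 2×10^6 cells/mL given 10 μM compound for 30 min, heated in aliquots for 3 min across 48°C-58°C, pooled, and extracted in PBS with 0.5% NP-40 at 4°C, and was quantified by TMTpro 16plex LC-MS/MS with equalised channel sums. Thermal stability against control samples, from duplicates, is reported as log2 fold change.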
# [1] = compound: C/C(=N\NC(=O)C1=CC(=CC=C1)S(=O)(=O)N2CCOCC2)/C3=C(C=CC(=C3)Cl)O
# Method in brief: as §1
# [2] = compound: C1=CC(=C(C=C1Cl)C2=NC3=NC=CN=C3C(=N2)NC4=CC=NC=C4)F
# Method in brief: as §1
# [3] = compound: C1=CC(=CC=C1C2=NC3=C(N2)C=C(C=C3)C(=O)N)OC4=CC=C(C=C4)Cl
# Method in brief: as §1
# [4] = compound: C1=CC2=C(C=CC(=C2)/C=C\3/C(=O)NC(=NCC4=CC=CS4)S3)N=C1
# Method in brief: as §1
# [5] = compound: C1=CC2=NC=CN=C2C=C1/C=C/3\C(=O)NC(=O)S3
# Method in brief: as §1
# [6] = compound: C1=CC=C(C=C1)C2=NC(=C(N2)C3=CC=NC=C3)C4=CC(=C(C=C4)Cl)O
# Method in brief: as §1
# [7] = compound: C1=CC=C2C(=C1)C3=NNC4=CC=CC(=C43)C2=O
# Method in brief: as §1
# [8] = compound: C1CCN(C1)C(=O)NC2=CC=CC(=C2)NC3=NC=C(C(=N3)NCCC4=CN=CN4)Br
# Method in brief: as §1
# [9] = compound: C1CN(CCC1(CC2=CC=C(C=C2)Cl)N)C3=NC=NC4=C3C=CN4
# Method in brief: as §1
Target,log2 fold change (erlotinib),log2 fold change [1],log2 fold change [2],log2 fold change [3],log2 fold change [4],log2 fold change [5],log2 fold change [6],log2 fold change [7],log2 fold change [8],log2 fold change [9]
EDC3 (UniProt Q96F86),inactive: -0.023,inactive: 0.156,inactive: 0.009,inactive: 0.043,inactive: -0.007,inactive: -0.227,inactive: -0.024,inactive: -0.057,inactive: -0.195,active: -0.376
ECI1 (UniProt P42126),inactive: 0,inactive: 0.076,inactive: 0.032,inactive: 0.011,inactive: 0.104,inactive: 0.033,inactive: -0.053,inactive: 0.015,inactive: 0.005,inactive: -0.013
DOCK1 (UniProt Q14185),inactive: 0.179,inactive: -0.093,inactive: -0.13,inactive: -0.143,inactive: 0.241,inactive: 0.034,inactive: -0.325,inactive: -0.07,–,–
ECH1 (UniProt Q13011),inactive: -0.027,inactive: 0.053,inactive: 0.243,inactive: 0,inactive: 0.126,inactive: -0.018,active: 0.541,active: 0.361,inactive: -0.028,inactive: -0.064
DNPEP (UniProt Q9ULA0),inactive: 0.002,inactive: -0.002,inactive: 0.019,inactive: 0.015,inactive: -0.014,inactive: 0.012,inactive: 0.003,inactive: -0.023,inactive: -0.039,inactive: 0.039
DYRK1A isoform 2 (UniProt Q13627),inactive: 0.034,inactive: 0.039,inactive: -0.058,inactive: 0.019,inactive: -0.095,inactive: -0.173,inactive: -0.027,inactive: -0.064,inactive: -0.093,inactive: -0.067
ECM1 isoform 4 (UniProt Q16610),inactive: -0.003,inactive: 0.005,inactive: 0.07,inactive: -0.031,inactive: 0.022,inactive: 0.01,inactive: -0.026,inactive: -0.033,inactive: -0.045,inactive: -0.023
DNTTIP2 (UniProt Q5QJE6),inactive: -0.111,inactive: -0.186,inactive: -0.242,inactive: 0.038,inactive: 0.005,inactive: -0.043,inactive: -0.069,inactive: -0.269,inactive: -0.004,inactive: -0.111
EDF1 (UniProt O60869),inactive: 0.016,inactive: 0.012,inactive: 0.043,inactive: -0.027,inactive: -0.025,inactive: -0.017,inactive: -0.02,inactive: 0.01,inactive: 0.013,inactive: 0.03
DPH7 (UniProt Q9BTV6),inactive: 0.052,inactive: -0.034,inactive: 0.021,inactive: -0.004,inactive: 0.07,inactive: 0.061,inactive: -0.067,inactive: 0.148,inactive: 0.008,inactive: 0.13
DSG2 (UniProt Q14126),inactive: -0.015,inactive: 0.021,inactive: 0.016,inactive: 0.047,inactive: 0.032,inactive: 0.009,inactive: 0.014,inactive: -0.058,inactive: -0.019,inactive: 0.044
DNM2 (UniProt P50570),inactive: 0.042,inactive: 0.065,inactive: 0.01,inactive: -0.025,inactive: 0.046,inactive: -0.001,inactive: 0.019,inactive: 0.033,inactive: 0.015,inactive: -0.003
DNAJC13 (UniProt O75165),inactive: 0.016,inactive: 0.104,inactive: -0.03,inactive: 0.027,inactive: -0.015,inactive: -0.035,inactive: -0.041,inactive: -0.018,inactive: 0.028,inactive: 0.003
DPAGT1 (UniProt Q9H3H5),inactive: -0.045,inactive: 0.062,inactive: 0.169,inactive: -0.025,inactive: -0.022,inactive: 0.121,inactive: 0.033,inactive: 0.041,inactive: -0.007,inactive: 0.066
DNAJC2 (UniProt Q99543),inactive: 0.104,inactive: -0.012,inactive: -0.062,inactive: -0.047,inactive: 0.145,inactive: -0.04,inactive: -0.022,inactive: -0.011,inactive: -0.101,inactive: -0.306
DNAJB6 (UniProt O75190),inactive: 0.011,inactive: 0.009,inactive: -0.011,inactive: -0.006,inactive: 0.088,inactive: 0.025,inactive: -0.081,inactive: 0.007,inactive: 0.026,inactive: 0.073
E2F4 (UniProt Q16254),inactive: 0.021,inactive: -0.003,inactive: 0.019,inactive: -0.003,inactive: 0.029,inactive: 0.043,inactive: -0.064,inactive: -0.02,inactive: -0.071,inactive: -0.022
DNAJB12 (UniProt Q9NXW2),inactive: -0.039,inactive: -0.001,inactive: 0.003,inactive: 0.102,inactive: 0.004,inactive: 0.032,inactive: 0.006,inactive: -0.064,inactive: 0.044,inactive: 0.033
DYNC1I2 isoform 2 (UniProt Q13409),inactive: 0.018,inactive: 0.155,inactive: 0.057,inactive: -0.056,inactive: -0.202,inactive: -0.013,inactive: 0.17,inactive: 0.057,inactive: -0.062,inactive: 0.029
DUT (UniProt P33316),inactive: -0.001,inactive: 0.015,inactive: 0.022,inactive: -0.023,inactive: 0.011,inactive: 0,inactive: -0.021,inactive: 0.024,inactive: 0.008,inactive: -0.029
ECI2 (UniProt O75521),inactive: 0.044,inactive: 0.005,inactive: 0.053,inactive: -0.005,inactive: 0.028,inactive: 0.02,inactive: 0.056,inactive: 0.009,inactive: 0.001,inactive: 0.067
DXO (UniProt O77932),inactive: -0.106,inactive: 0.082,inactive: 0.001,inactive: 0.063,inactive: -0.13,inactive: 0.096,inactive: 0.097,inactive: 0.035,inactive: -0.034,inactive: 0.123
EAF1 (UniProt Q96JC9),inactive: 0.049,inactive: -0.019,inactive: 0.021,inactive: 0.026,inactive: 0.024,inactive: 0.18,inactive: -0.07,inactive: 0.051,inactive: 0.043,inactive: 0.115
DYNLRB1 (UniProt Q9NP97),inactive: -0.011,inactive: 0.008,inactive: 0.086,inactive: -0.032,inactive: 0.051,inactive: 0.084,inactive: 0.028,inactive: 0.052,inactive: -0.029,inactive: -0.016
DR1 (UniProt Q01658),inactive: 0.019,inactive: 0.026,inactive: 0.019,inactive: -0.009,inactive: 0,inactive: 0.058,inactive: 0.035,inactive: -0.005,inactive: -0.006,inactive: 0.012
DOHH (UniProt Q9BU89),inactive: -0.001,inactive: -0.102,inactive: -0.046,inactive: 0,inactive: 0.083,inactive: -0.183,inactive: 0.064,inactive: 0.038,inactive: -0.051,inactive: 0.026
EDEM2 (UniProt Q9BV94),inactive: -0.025,inactive: 0.023,inactive: -0.009,inactive: 0.09,inactive: 0.132,inactive: -0.318,inactive: 0.012,inactive: 0.081,inactive: -0.018,inactive: 0.05
DYNC1I2 isoform 5 (UniProt Q13409),inactive: -0.009,inactive: -0.016,inactive: -0.033,inactive: 0.003,inactive: 0.025,inactive: -0.006,inactive: 0.057,inactive: 0.016,inactive: 0.007,inactive: 0.018
EDEM3 (UniProt Q9BZQ6),inactive: -0.043,inactive: -0.034,inactive: -0.09,inactive: 0.027,inactive: 0.003,inactive: 0.041,inactive: 0.015,inactive: 0.011,inactive: 0.038,inactive: 0.026
DPH5 isoform 5 (UniProt Q9H2P9),inactive: 0,inactive: 0.054,inactive: 0.093,inactive: 0.037,inactive: 0.022,inactive: 0.03,inactive: 0.041,inactive: 0.005,inactive: 0.004,inactive: 0.052

# An excerpt taken from the entries so far, for reference:
Target,log2 fold change (erlotinib),log2 fold change [1],log2 fold change [2],log2 fold change [3],log2 fold change [4],log2 fold change [5],log2 fold change [6],log2 fold change [7],log2 fold change [8],log2 fold change [9]
DNAJB6 (UniProt O75190),inactive: 0.011,inactive: 0.009,inactive: -0.011,inactive: -0.006,inactive: 0.088,inactive: 0.025,inactive: -0.081,inactive: 0.007,inactive: 0.026,inactive: 0.073
E2F4 (UniProt Q16254),inactive: 0.021,inactive: -0.003,inactive: 0.019,inactive: -0.003,inactive: 0.029,inactive: 0.043,inactive: -0.064,inactive: -0.02,inactive: -0.071,inactive: -0.022
